Measured values from US12692310B2, “ASIC1 channel antagonist antibody” (ShanghaiTech University, priority 2019, dated 2026).
These are yes or no findings as the source states them, for the method shown. Some binding calls cover weakened binding; strength is not graded here.

Tests used:
[1] = molecular target: T1, ectodomain of hASIC1a (hASIC1a-ECD) (human) (UniProt P78348); assay: gel filtration (Superdex 200)
T1 sequence (looked up): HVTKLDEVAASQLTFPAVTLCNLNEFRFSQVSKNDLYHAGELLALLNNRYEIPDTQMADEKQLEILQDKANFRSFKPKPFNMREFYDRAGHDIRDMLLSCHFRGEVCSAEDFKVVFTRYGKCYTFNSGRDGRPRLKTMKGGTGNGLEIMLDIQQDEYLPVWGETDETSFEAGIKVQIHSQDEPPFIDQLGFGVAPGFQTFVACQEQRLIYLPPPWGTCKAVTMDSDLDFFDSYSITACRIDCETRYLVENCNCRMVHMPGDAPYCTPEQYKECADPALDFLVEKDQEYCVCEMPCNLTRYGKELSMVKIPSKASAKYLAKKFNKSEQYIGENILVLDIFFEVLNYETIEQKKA

[2] = molecular target: T1, ectodomain of hASIC1a (hASIC1a-ECD) (human); assay: negative-stain EM, 2D class averages
[3] = molecular target: T1, ectodomain of hASIC1a (hASIC1a-ECD) (human); assay: gel filtration of ASC06-Fab and hASIC1a-ECD mixed 3:1
[4] = molecular target: T1, ectodomain of hASIC1a (hASIC1a-ECD) (human); assay: gel filtration (Superdex 200, 24 mL) of the mixture of ASC06-Fab and hASIC1a-ECD, compared with each alone

binding [1]: binds
binding [2]: binds
binding [3]: binds
binding [4]: binds
B1: ASC06-Fab (Fab, V domains shown)
VH: QVQLQQSGGGLVQPGGSLRLSCAASGFTFSSYAMSWVRQAPGKGLEWVSAISGSGGSTYYADSVKGRFTISRDNSKNTLYLQMNSLRAEDTAVYYCAKDSFYGYSKGDWGQGTLVTVSS
VL: QSALTQPASVSGSPGQSITISCTGTSSDVGAYNYVSWYQQQPGKAPKLMIYGVSNRPSGVSNRFSGSKSGNAASLTISGLQAEDEADYYCSSYTSSSTYVFGTGTKLTVLG
